Reference: paper PMC10256765
Results are given in words; binding and its absence hold for the method and conditions named. Binding seen in cells or lysates may run through a third protein. Here binding means that the protein was enriched with, or labelled near, the bait; the list need not be complete.

Molecular target: wild-type nsP3 of M1 virus with a 3×flag tag (alphavirus M1)
Experiment: affinity purification with mass spectrometry; lysate (2 mg/mL) of HCT-116 cells stably expressing 3×flag nsP3 WT or M358L; anti-FLAG antibody or normal mouse IgG overnight at 4 °C, Protein A/G beads; precipitate analysed by mass spectrometry

B1: G3BP-2 (protein, UniProt Q9UN86 1-482)
chain: MVMEKPSPLLVGREFVRQYYTLLNKAPEYLHRFYGRNSSYVHGGVDASGKPQEAVYGQNDIHHKVLSLNFSECHTKIRHVDAHATLSDGVVVQVMGLLSNSGQPERKFMQTFVLAPEGSVPNKFYVHNDMFRYEDEVFGDSEPELDEESEDEVEEEQEERQPSPEPVQENANSGYYEAHPVTNGIEEPLEESSHEPEPEPESETKTEELKPQVEEKNLEELEEKSTTPPPAEPVSLPQEPPKAFSWASVTSKNLPPSGTVSSSGIPPHVKAPVSQPRVEAKPEVQSQPPRVREQRPRERPGFPPRGPRPGRGDMEQNDSDNRRIIRYPDSHQLFVGNLPHDIDENELKEFFMSFGNVVELRINTKGVGGKLPNFGFVVFDDSEPVQRILIAKPIMFRGEVRLNVEEKKTRAARERETRGGGDDRRDIRRNDRGPGGPRGIVGGGMMRDRDGRGPPPRGGMAQKLGSGRGTGQMEGRFTGQRR
For B1, the binding was “binds”.
